In US20150064747A1:
These are yes or no findings as the source states them, for the method shown. In cells and extracts the contact can be indirect. Some entries that bind do so weakly or less than the wild type. Sequences can lack the tags named with a protein.

Molecular target: T1, GST-BMRF1(1-303) fusion polypeptide (Epstein-Barr Virus) (UniProt P03191)
T1 sequence: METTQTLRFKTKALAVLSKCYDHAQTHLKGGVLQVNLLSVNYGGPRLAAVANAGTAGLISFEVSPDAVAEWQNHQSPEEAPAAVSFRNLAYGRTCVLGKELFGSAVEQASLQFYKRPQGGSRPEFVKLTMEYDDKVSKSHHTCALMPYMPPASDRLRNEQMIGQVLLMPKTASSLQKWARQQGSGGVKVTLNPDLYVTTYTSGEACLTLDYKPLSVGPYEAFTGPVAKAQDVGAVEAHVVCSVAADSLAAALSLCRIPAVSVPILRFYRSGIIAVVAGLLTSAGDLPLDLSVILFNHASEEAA
Assay: GST pull-down of [35S]-methionine labeled in vitro translated polypeptide, 100 mM ammonium sulfate

B1: BALF5 with deletion of the amino-terminal 160 residues (enzyme)
chain: VEFAVLSALKASTFDRRTPCRVSVEKVTRRSIMGYGNHAGDYHKITLSHPNSVCHVATWLQDKHGCRIFEANVDATRRFVLDNDFVTFGWYSCRRAIPRLQHRDSYAELEYDCEVGDLSVRREDSSWPSYQALAFDIECLGEEGFPTATNEADLILQISCVLWSTGEEAGRYRRILLTLGTCEDIEGVEVYEFPSELDMLYAFFQLIRDLSVEIVTGYNVANFDWPYILDRARHIYSINPASLGKIRAGGVCEVRRPHDAGKGFLRANTKVRITGLIPIDMYAVCRDKLSLSDYKLDTVARHLLGAKKEDVHYKEIPRLFAAGPEGRRRLGMYCVQDSALVMDLLNHFVIHVEVAEIAKIAHIPCRRVLDDGQQIRVFSCLLAAAQKENFILPMPSASDRDGYQGATVIQPLSGFYNSPVLVVDFASLYPSIIQAHNLCYSTMITPGEEHRLAGLRPGEDYESFRLTGGVYHFVKKHVHESFLASLLTSWLAKRKAIKKLLAACEDPRQRTILDKQQLAIKCTCNAVYGFTGVANGLFPCLSIAETVTLQGRTMLERAKAFVEALSPANLQALAPSPDAWAPLNPEGQLRVIYGDTDSLFIECRGFSESETLRFADALAAHTTRSLFVAPISLEAEKTFSCLMLITKKRYVGVLTDGKTLMKGVELVRKTACKFVQTRCRRVLDLVLADARVKEAASLLSHRPFQESFTQGLPVGFLPVIDILNQAYTDLREGRVPMGELCFSTELSRKLSAYKSTQMPHLAVYQKFVERNEELPQIHDRIQYVFVEPKGGVKGARKTEMAEDPAYAERHGVPVAVDHYFDKLLQGAANILQCLFDNNSGAALSVLQNFTARPPF
binding: binds
